The campaign covered roughly 31,000 sequences. About 1,400 (4.5%) were called active.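 The calls were made as follows: active = median seed-adjusted z-score above 1 or below -1; inactive = the rest.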 Some of the results follow.

The experiment is described as follows: Novel Modifiers of Survival Motor Neuron (SMN) Protein: Gene Identification via Genome-wide siRNA Screen.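 Also: luminescence tracks full-length SMN protein made from the SMN2 reporter.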 The settings on record: HEK293T SMN2-luciferase reporter, siRNA knockdown, 72 h; actives lie on both sides. A digest of the protocol:
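HEK293T cells stably carrying an SMN2 promoter/splicing cassette–luciferase reporter were reverse-transfected with 1 pmol siRNA per well (druggable-genome library, 3 siRNAs per gene) and grown 72 h at 37 °C. Luminescence, normalized to negative-control siRNA and log10-transformed, was scored as MAD.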
In general terms: Reporter assays use an easily measured gene product as a stand-in for the process of interest.
Take GAGCUGAAGUCCUUAGAUATT against EIF2B3: the median seed-adjusted z-score is inactive: -0.271.
On to GCUACAAGGUUAUCGGUAUTT against GOT2, for which the median seed-adjusted z-score was inactive: 0.205.
Take CUCUGGAACGUGACUUUUATT against PAFAH2: the median seed-adjusted z-score was inactive: 0.0216.
For the sequence GACCAAAAUUUGGAUACAATT against CTSL2, the median seed-adjusted z-score was active: -1.04.
For GAUGUUGUCUUGCAACGAATT against MAGI3 the value was inactive: 0.202.
Take GCAAGAUUUUUACCGCAGATT against HSPA13: the median seed-adjusted z-score is inactive: 0.
For GGAUCUUUGUGAGUCUGAATT against ANKZF1 the value was inactive: 0.176; for GAGUGGAAGUUAUCUGUCATT against WBSCR22, inactive: -0.21; for GUGGUAAGGUGUUCACUGATT against PATZ1, inactive: -0.57.
Regarding CGACAACUGCAACUACGAUTT against PCSK7, the median seed-adjusted z-score is inactive: 0.
Regarding GAUACGCUAUGAACUCUCATT against RCE1, the median seed-adjusted z-score was active: -1.19.
As for CGAUCAGUGCUGCACUUAATT against APOF, the figure is inactive: 0.0982; as for CCCUGAUCAUAUUUGGGAATT against NPSR1, inactive: -0.314; as for UGUCAGAGACUGGACCUUATT against ZNF238, inactive: -0.491.
With GGAGCUCACAUUUAUGGAATT against EXOSC5, the median seed-adjusted z-score is inactive: 0.109.
With GGAGAUUAAUGGGCACAAUTT against MYO18A, the median seed-adjusted z-score was inactive: 0.174.
For GCCUUACUCAAGAUUGACATT against PCDH21 the value was inactive: -0.528.
Regarding GAGAAGUUUUUGAUACCUATT against GNPAT, the median seed-adjusted z-score was inactive: 0.111.
Regarding GCAGUGUAUAGAACGAGAATT against RNGTT, the median seed-adjusted z-score was active: -1.55.
In the case of GGAAAUUGUCCAUAAACUUTT against SMYD5, the median seed-adjusted z-score was inactive: -0.217.
For GAGUUGCUGUGGUUUAUCATT against TYMS the value was inactive: -0.6.
With GGAUGAGAUGAUCUCAGUATT against ZNF662, the median seed-adjusted z-score was inactive: 0.352.
Consider GAGCAGAUUCAAUACCGAATT against CAPN13, for which the median seed-adjusted z-score was inactive: 0.208.
As for GAAUCAUCGUGGGACUUUUTT against GABBR1, the figure is inactive: -0.0526; as for CCGAUGGAUUUGCACUGUATT against PDE10A, inactive: -0.382; as for GUAUUCGCUUUGCAUCUUUTT against SUV39H2, inactive: -0.279.
Take GGUCUUCGGUGUCCACUUUTT against CCR7: the median seed-adjusted z-score was inactive: 0.244.
GUAUUAAUGUUUUUGCAUATT against MARCKS: the median seed-adjusted z-score is inactive: 0.379.
For UGCUCACGGUUGACCGCUATT against GPR142, the median seed-adjusted z-score was inactive: -0.0636.
As for CAAAGAGAGUUAUGACUAUTT against VPS29, the figure is inactive: -0.408.
With GACUGGAAAUGAUUCGAGATT against RTCD1, the median seed-adjusted z-score is inactive: 0.0794.
With GUGCAAGCGAGACAACAAATT against PCDH19, the median seed-adjusted z-score was inactive: 0.
For CAGACACUGUCGCUACGUATT against PCYT1B the value was inactive: 0.177.
As for GCAUCCACACAAGGGCAAATT against DUX1, the median seed-adjusted z-score is inactive: -0.62.
With GCCUUACCAAGGUUACAGATT against C10orf2, the median seed-adjusted z-score was inactive: 0.31.
As for GCCGGAAGAUGCAUAUGAATT against DYNC1LI2, the median seed-adjusted z-score is inactive: -0.491.
Turning to CAAUCAAGUUCACCGAAAATT against 2-Sep, the median seed-adjusted z-score is inactive: 0.0349.
Turning to CCAUCCAGUUGGUACCCAATT against ELN, the median seed-adjusted z-score is inactive: -0.149.
Regarding GGAACAUAGUCUUCAGGUATT against KIF20A, the median seed-adjusted z-score was inactive: 0.906.
Turning to GAGCAACUUUGAUCAACGATT against PDGFRB, the median seed-adjusted z-score was inactive: -0.709.
As for GCUUUGAAGAUGUAGGACATT against CYB5B, the figure is inactive: 0; as for GAAGAUAUGCAACAGCCUATT against UNC5B, inactive: -0.0207; as for GCGACACAGGGACUAUUUUTT against HES3, inactive: 0.284.
For GGUGCUCUCGGUUGCACAATT against U2AF1, the median seed-adjusted z-score was active: 2.08.
As for GGAAGUGGUUAAAGCCUGATT against ALDH16A1, the figure is inactive: 0.42; as for CUUCUUCAACGGGACAGAATT against GGT5, inactive: 0.307.
Regarding CGGAAGAGCUGUACAAAGATT against KLC3, the median seed-adjusted z-score is inactive: -0.156.
Consider CAGAAGAUAUCAUCAAGUUTT against ABLIM1, for which the median seed-adjusted z-score was inactive: 0.115.
Take UGAGAGCUCUAGAUAUGAATT against ZNF768: the median seed-adjusted z-score was inactive: 0.169.
For GUACUUGAAGGAAAUCGAATT against MCM6, the median seed-adjusted z-score is inactive: 0.266.
Turning to GCUCAGUUCUCGUCAAGGATT against ARIH2, the median seed-adjusted z-score is inactive: 0.0449.
As for GGAGGAGACCGCAAGUUGATT against BCL2L12, the median seed-adjusted z-score was inactive: -0.77.
Turning to AGAUUAGAGUGAUUUGUGATT against LRRC55, the median seed-adjusted z-score was inactive: 0.314.
Regarding GGGAAGCCGCCUAUACCAATT against TK1, the median seed-adjusted z-score is inactive: -0.0562.
As for GAGUGAAAGAUAUACUUCATT against CARD16, the figure is inactive: 0.57; as for GCAUGUCAACAUAUCUCAATT against ZNF143, inactive: -0.357; as for AGACAAAUACCGAUACUUUTT against NDUFB9, inactive: -0.982.
As for CAGCUGGUCCUGGACCUAATT against GRIN3B, the figure is inactive: 0.39; as for GCUCAUCUGGUUACAGUAATT against SFRS2B, inactive: -0.272; as for GACCCACUUCCGAUCCAAATT against ZNF593, inactive: 0.215.
As for GCAGAUAAGUGCGAGGAAATT against TP53BP2, the figure is inactive: 0.157; as for UCUCCUGUCUGGUCCGAGATT against HSPBP1, inactive: 0.368; as for GAGCAGUUAUUCAAGCGGATT against KPNA1, inactive: -0.0231.
In the case of GUACUUUUGACAACAUUUATT against NAT13, the median seed-adjusted z-score was inactive: 0.
As for GGUCACAGUUGGAAAGACATT against SIRPG, the figure is inactive: -0.109; as for GGAAGAAGGUCAUCCGAAUTT against PKD1L3, inactive: -0.658; as for GACUGAAGGUGGAUUGUCATT against EYA1, inactive: 0.0838.
As for GGAGUGAUCCUUCUGGUAATT against MEX3C, the median seed-adjusted z-score is inactive: 0.0977.
As for CAACGAGGAUGACAACCAATT against ZDHHC15, the figure is inactive: 0.548.
In the case of GGAUUGCUUCUGACUCCGATT against ELK3, the median seed-adjusted z-score was inactive: -0.16.
As for CAACUUCCAGAUACACCUATT against ISL1, the figure is inactive: 0.138.
For the sequence CAAGAUCAAGAGUUCCUGATT against CYP2B6, the median seed-adjusted z-score was inactive: 0.454.
For the sequence GCAUACCAGGAAUUCCUCATT against APBA1, the median seed-adjusted z-score is inactive: 0.305.
As for CUAAACCACCUGUUCGAAATT against DYNC1LI1, the median seed-adjusted z-score is inactive: -0.683.
Turning to GGCUUGUAAUUUCAUGCAATT against SYNPO2, the median seed-adjusted z-score is inactive: 0.
Consider ACAGAUACCAGGUCAAUAATT against ITGAX, for which the median seed-adjusted z-score was inactive: -0.0677.
For CCAUCUUCCUGAUCGACGATT against CDH22 the value was inactive: -0.57; for GCUUUAUGAAUCUAGCAAATT against ZNF416, inactive: 0.668; for GGAAGAUCCUCUACCAGAATT against LATS2, inactive: -0.245.
On to GGUUUAUAAUUGGGAUGUATT against VBP1, for which the median seed-adjusted z-score was inactive: 0.317.
With GGAAAAGAAGUGUAGCUAUTT against APOH, the median seed-adjusted z-score was inactive: 0.0283.
With CAACCGUCUUACUCUCUUUTT against LRRC15, the median seed-adjusted z-score is inactive: -0.723.
As for CAUGGGUGCUUAUAAGUCATT against IL1A, the figure is active: 1.12.
For CAGGAACACUAUAAUUAUATT against S1PR2 the value was inactive: -0.964; for CAGACAGACUGGUCGUUUATT against KIF9, inactive: 0.
As for GAGAAGACCUUUAUACGAATT against XPOT, the median seed-adjusted z-score was inactive: 0.366.
Turning to GCACCUUUCUGCUACGGUATT against ZNF526, the median seed-adjusted z-score is inactive: 0.0265.
GGGUUUCACGGAUGUCACUTT against SMOX: the median seed-adjusted z-score was inactive: -0.148.
Regarding CAUUGACUACAUUCAGUUUTT against MLX, the median seed-adjusted z-score was inactive: 0.126.
On to GGUCAGAACAUUCACCGAATT against CFTR, for which the median seed-adjusted z-score is active: -1.23.
As for GGAUUAUCAAGCACAAGUATT against SLC35D2, the median seed-adjusted z-score is inactive: -0.127.
Turning to GCCGCAUGGUGGUUGUGAUTT against OPN1SW, the median seed-adjusted z-score was inactive: 0.32.
As for GCAGAGGACGAAAAUGAUUTT against SSX1, the figure is inactive: 0.0114; as for GCACAGAAUCUUCCCUGGATT against TEF, inactive: 0.
For ACAUGUACCCGGAAAAGCUTT against TFAP4, the median seed-adjusted z-score was inactive: -0.0515.
With GUGUUAGUAUAAUCGGUUUTT against NDST4, the median seed-adjusted z-score was inactive: 0.426.
Regarding GAACAUUCUUAAAGCCCUATT against RNF150, the median seed-adjusted z-score is inactive: 0.478.
On to GCCUGGUGUUACCCAUAUATT against ACTR10, for which the median seed-adjusted z-score was inactive: 0.362.
As for AACUUUCAGUCCCAAGUUATT against NADK, the median seed-adjusted z-score was inactive: -0.201.
For the sequence CGUGAACUGGAAAAGAUCATT against GABBR1, the median seed-adjusted z-score was inactive: -0.0526.
Take CGCUCAUCUAUUACCUGGATT against TACSTD2: the median seed-adjusted z-score was inactive: -0.681.
GCCUUAUUGGUAAGGUUGATT against F2RL1: the median seed-adjusted z-score is inactive: 0.138.
Regarding GCAAGUCCCUGUACUAUUATT against ANXA2, the median seed-adjusted z-score was inactive: 0.499.
For UGAUCAACCUCAAGACGGATT against MED16 the value was inactive: -0.6.
In the case of GCCCUUACAGGGUAUCAAATT against DDX46, the median seed-adjusted z-score was active: -1.24.
GCUGCUGCCUUCAUAUUGATT against EPHB4: the median seed-adjusted z-score is inactive: -0.143.
Take GUGUUUCACUUACCUAUAATT against ING2: the median seed-adjusted z-score was inactive: 0.126.
Regarding AGUUCCUGAUUGUACGAAUTT against NME6, the median seed-adjusted z-score was inactive: -0.304.

(Values after PubChem BioAssay AID1347426 (Functional Genomics Laboratory (NCATS/FGL), 2020).)
